From paper PMC4583372
No constants are given. Whether binding was seen depends on the method and setting. Binding seen in cells or lysates may run through a third protein. A yes stands for co-enrichment or nearness to the bait. Other partners may have been found.

Amino acid sequences for entries named in this document (tags omitted).
UniProt E1AZ71: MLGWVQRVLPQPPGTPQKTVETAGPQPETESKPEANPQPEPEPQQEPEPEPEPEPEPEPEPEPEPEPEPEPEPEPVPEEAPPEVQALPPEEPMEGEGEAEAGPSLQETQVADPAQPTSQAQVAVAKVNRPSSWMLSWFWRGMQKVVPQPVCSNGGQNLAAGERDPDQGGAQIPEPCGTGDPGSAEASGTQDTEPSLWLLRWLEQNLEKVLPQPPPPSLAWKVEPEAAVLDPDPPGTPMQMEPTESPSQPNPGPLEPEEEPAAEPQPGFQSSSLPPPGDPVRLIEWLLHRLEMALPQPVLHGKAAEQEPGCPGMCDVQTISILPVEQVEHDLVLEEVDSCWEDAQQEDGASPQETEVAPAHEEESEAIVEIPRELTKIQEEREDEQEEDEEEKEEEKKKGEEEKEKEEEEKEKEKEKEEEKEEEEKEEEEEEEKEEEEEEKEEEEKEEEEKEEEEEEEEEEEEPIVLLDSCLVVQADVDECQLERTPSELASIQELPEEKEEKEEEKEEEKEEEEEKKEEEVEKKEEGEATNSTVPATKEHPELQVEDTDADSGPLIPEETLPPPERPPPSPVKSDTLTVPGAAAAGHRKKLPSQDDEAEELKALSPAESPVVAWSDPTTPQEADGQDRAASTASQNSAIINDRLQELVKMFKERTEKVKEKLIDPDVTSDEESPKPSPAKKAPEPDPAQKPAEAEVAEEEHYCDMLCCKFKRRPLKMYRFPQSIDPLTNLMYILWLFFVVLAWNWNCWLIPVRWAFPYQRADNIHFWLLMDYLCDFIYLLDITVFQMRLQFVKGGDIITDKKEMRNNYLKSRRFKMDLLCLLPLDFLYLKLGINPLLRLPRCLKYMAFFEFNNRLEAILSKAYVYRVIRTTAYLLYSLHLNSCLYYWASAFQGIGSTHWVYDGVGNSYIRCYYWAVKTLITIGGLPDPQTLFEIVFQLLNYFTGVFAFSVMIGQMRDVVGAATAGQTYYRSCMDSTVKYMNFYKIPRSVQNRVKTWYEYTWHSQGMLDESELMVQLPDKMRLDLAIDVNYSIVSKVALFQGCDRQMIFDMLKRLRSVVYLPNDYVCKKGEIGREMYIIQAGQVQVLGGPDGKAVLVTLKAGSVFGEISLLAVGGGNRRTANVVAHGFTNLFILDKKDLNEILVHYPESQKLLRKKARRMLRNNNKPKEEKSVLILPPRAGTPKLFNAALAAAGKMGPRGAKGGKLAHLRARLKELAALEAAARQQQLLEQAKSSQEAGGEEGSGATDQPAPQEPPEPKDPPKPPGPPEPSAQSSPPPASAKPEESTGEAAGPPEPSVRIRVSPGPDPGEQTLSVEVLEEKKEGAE
UniProt P32958: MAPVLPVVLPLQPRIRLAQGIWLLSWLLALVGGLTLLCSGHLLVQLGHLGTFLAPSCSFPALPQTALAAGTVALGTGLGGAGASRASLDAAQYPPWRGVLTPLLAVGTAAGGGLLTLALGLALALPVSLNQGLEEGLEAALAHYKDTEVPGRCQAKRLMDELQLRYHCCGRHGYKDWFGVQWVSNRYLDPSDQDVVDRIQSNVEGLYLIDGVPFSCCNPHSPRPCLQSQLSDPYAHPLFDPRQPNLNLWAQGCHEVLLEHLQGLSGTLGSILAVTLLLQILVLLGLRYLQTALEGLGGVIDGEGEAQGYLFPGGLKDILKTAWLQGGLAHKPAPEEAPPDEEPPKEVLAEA

Key:
[1] = molecular target: T1, Peripherin-2 also known as RDS (retinal degeneration slow) (mouse (endogenous in retina)) (UniProt P15499); assay: affinity purification with mass spectrometry; CHAPS-solubilized membrane pellet of WT mouse retinas; RDS mAB 2E7 or ROM-1 mAB 2H5 chemically linked to sepharose 2B beads, 1 h at 4°C; elution with 1% SDS; LC-MS; rds-/- retinas as negative control
T1 sequence: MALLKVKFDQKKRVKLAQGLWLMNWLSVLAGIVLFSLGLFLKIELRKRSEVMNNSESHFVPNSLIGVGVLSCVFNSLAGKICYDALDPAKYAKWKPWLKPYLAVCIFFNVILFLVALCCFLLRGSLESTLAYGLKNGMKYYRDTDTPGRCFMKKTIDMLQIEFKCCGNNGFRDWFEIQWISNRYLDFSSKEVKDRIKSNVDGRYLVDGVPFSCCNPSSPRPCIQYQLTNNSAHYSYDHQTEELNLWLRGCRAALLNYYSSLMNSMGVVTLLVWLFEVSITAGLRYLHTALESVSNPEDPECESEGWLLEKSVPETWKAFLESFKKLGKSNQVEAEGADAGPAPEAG

[2] = molecular target: T2, Syntaxin-3 isoform B (Stx3) (mouse (endogenous in retina)) (UniProt Q64704); assay: affinity purification with mass spectrometry; CHAPS-solubilized membrane pellet of WT mouse retinas; anti-Syn3B (Synaptic Systems) and protein A beads overnight at 4°C; elution with 1% SDS; LC-MS; non-specific IgG as negative control
T2 sequence: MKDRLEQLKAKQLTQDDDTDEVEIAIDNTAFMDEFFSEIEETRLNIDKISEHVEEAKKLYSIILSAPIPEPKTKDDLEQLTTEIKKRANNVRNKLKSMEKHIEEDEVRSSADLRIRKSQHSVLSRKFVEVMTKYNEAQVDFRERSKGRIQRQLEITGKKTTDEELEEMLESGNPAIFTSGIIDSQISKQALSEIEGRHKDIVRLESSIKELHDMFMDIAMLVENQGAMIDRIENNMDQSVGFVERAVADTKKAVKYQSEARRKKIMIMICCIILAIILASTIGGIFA

binding [1] | binding [2] | Substance
binds | – | GARP/beta subunit of the rod cyclic nucleotide gated channel (CNGβ) (from UniProt E1AZ71 1-1325)
binds | binds | ROM-1 (rod outer segment protein 1) (from UniProt P32958 1-351)
